The other results are listed elsewhere or left out. These are further read-outs of the screen, such as a control signal, another cell line or another target. No call is given for them. Compounds called inactive in the main read-out are mostly missing here. Words in brackets tell the shape of the fitted curve; partial curves, single points and poor fits give uncertain potencies.

A short description of the assay: Cell signaling CRE-BLA (Fsk stim). Conditions: CHO CRE-bla reporter (cAMP response element driving beta-lactamase), forskolin EC10, beta-lactamase ratio; measured here: 460 nm blue channel. In short, it runs like this: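 CRE-bla CHO cells stimulated with EC10 NKH 477 (water-soluble forskolin) and compound titrations, 3 h at 37C; beta-lactamase read with CCF4 after 2 h at room temperature. Activity from 460/530 nm emission ratio, AC50 values for positive or negative modulation.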
A word on the AC50: it is the concentration at which the activity in the assay is half-maximal. `N#Cc1cccc(-c2ccc3ncnc(NCc4cccs4)c3c2)c1`: the AC50 was 3.98 µM [rising, single point]. As for `O=C(Nc1ccc(S(=O)(=O)N2CCCC2)cc1Cl)C1=COCCO1`, the concentration at half-maximal activity (AC50) is 5.01 µM [rising, single point]. In the case of `O=C(C1=C(O)C(=O)N(Cc2ccco2)C1c1cccnc1)c1cc2ccccc2o1` (stereo not drawn) it was 10 µM [falling, single point]. With `Cc1nn(Cc2ccc(Cl)c(Cl)c2)c(C)c1NC(=O)c1cc(C2CC2)on1`, the AC50 was 10 µM [falling, partial curve]. For `COc1ccc(Br)cc1CNC(=O)C1CCCN(c2nc3ccccc3o2)C1` (stereo not drawn), the half-maximal activity concentration (AC50) was 25.1 µM [rising, single point].

With `Cc1oc(C)c2c(=O)ccc3c(c12)OC(N)=C(C#N)C3c1ccccc1Cl` (stereo not drawn), the AC50 is 20 µM [rising, partial curve]. The figure for `COc1ccccc1-c1cc(Nc2ccn[nH]2)ncn1` is 15.8 µM [rising, partial curve]; for `COc1cccc(-c2ccc3ncnc(NCCNC(C)=O)c3c2)c1` it is 6.31 µM [rising, partial curve].

Take `Cc1nc2cnc(Nc3ccccc3)nc2n(CCc2ccccc2)c1=O`: the AC50 is 15.8 µM [rising, partial curve]. In the case of `O=C(NCc1ccco1)c1noc2c1CCCCC2`, the half-maximal activity concentration (AC50) is 2.51 µM [falling, single point].

Turning to `CCOC(=O)c1c(C)[nH]c(C(=O)C(C)OC(=O)c2cccc(OCc3c(C)noc3C)c2)c1C` (stereo not drawn), the concentration at half-maximal activity (AC50) is 3.98 µM [falling, full curve]. The figure for `FC(F)(F)c1nnc2ccc(NCn3nnc4ccccc43)nn12` is 15.8 µM [rising, partial curve]. Consider `Cc1cc(C)nc(NC(=NCc2ccc3c(c2)OCO3)NC(=O)Nc2ccccc2)n1`, for which the half-maximal activity concentration (AC50) is 10 µM [rising, partial curve]. Consider `Cc1ccccc1CS(=O)(=O)Cc1ccc(C(=O)NCc2ccccn2)o1`, for which the AC50 is 2 µM [falling, partial curve]. As to `CCOC(=O)N1CCN(C(=O)c2ccc(CN(c3ccc(C)c(C)c3)S(C)(=O)=O)cc2)CC1`, the concentration at half-maximal activity (AC50) is 20 µM [falling, single point]. Take `O=C(C1CCCN(S(=O)(=O)c2cccc3cccnc23)C1)N1CCN(c2ccc(F)cc2)CC1` (stereo not drawn): the AC50 was 7.94 µM [falling, partial curve]. For the molecule `O=c1c(-c2ccc(Cl)cc2)nc2cnc(N3CCNCC3)nc2n1-c1ccccc1`, the AC50 is 1.58 µM [rising, full curve]. For the molecule `Cc1cc(C)nc(SCc2nnc(SCC(=O)OC3CCCCC3)o2)n1`, the half-maximal activity concentration (AC50) was 25.1 µM [rising, single point]. Take `Cc1ccc(C)c(N2CCN(S(=O)(=O)c3ccc4c(c3)CCC(=O)N4)CC2)c1`: the AC50 is 2.51 µM [rising, partial curve]. As to `CCOC(=O)c1ccc(N2C(=O)c3n[nH]c(C)c3C2c2cccnc2)cc1` (stereo not drawn), the AC50 was 25.1 µM [rising, single point].

`CCCC(=O)NCCc1c2n(c3ccc(OC)cc13)Cc1ccccc1-2`: the half-maximal activity concentration (AC50) was 25.1 µM [rising, single point].

For `NC(=O)C[C@@H]1N[C@]2(C(=O)Nc3ccccc32)[C@@H]2C(=O)N(c3cc(C(F)(F)F)ccc3Cl)C(=O)[C@H]12`, the AC50 is 0.00398 µM [falling, full curve, poor fit]. Consider `c1cncc(-c2nc(NCCN3CCOCC3)c3ccccc3n2)c1`, for which the AC50 was 12.6 µM [rising, partial curve]. Regarding `O=C(c1cccs1)c1no[n+]([O-])c1C(=O)c1cccs1`, the AC50 was 10 µM [falling, partial curve]. For `Cc1ccc(-n2c(=O)cc(N3CC(C)CC(C)C3)[nH]c2=O)cc1` (stereo not drawn), the half-maximal activity concentration (AC50) is 25.1 µM [rising, single point].

Take `CCC(Oc1ccccc1)C(=O)Nc1nc2ccccc2[nH]1` (stereo not drawn): the AC50 was 5.01 µM [falling, single point].

In the case of `COc1ccc(NC(=O)CCC2COc3ccccc3O2)c(OC)c1` (stereo not drawn), the AC50 is 5.01 µM [falling, single point]. In the case of `COc1ccc(NC(=O)c2ccccc2NS(C)(=O)=O)cc1OC`, the concentration at half-maximal activity (AC50) is 10 µM [rising, single point]. The figure for `CCc1nnc(NC(=O)CCC(=O)NC2CCCCC2)s1` is 5.01 µM [falling, full curve, poor fit]; for `COc1ccc(-c2cn3cccnc3n2)cc1NC(=O)c1ccc(Br)o1` it is 10 µM [rising, single point]. In the case of `COc1ccc(Nc2nc(N)nc(SCc3nnc(C)s3)n2)cc1`, the AC50 was 12.6 µM [rising, single point].

Take `Cc1nn(C)c(C)c1S(=O)(=O)N1CCc2ccccc21`: the AC50 is 0.02 µM [falling, full curve].

Consider `c1ccc(-c2nnc(CSc3nnc(-c4cccs4)o3)o2)cc1`, for which the AC50 was 5.01 µM [falling, partial curve]. As for `COCCn1c(=O)c(-c2ccccc2)nc2cnc(Nc3ccccc3)nc21`, the AC50 is 7.94 µM [rising, partial curve]. Take `COc1ccc(C2C(C(=O)N3CCOCC3)CCC(=O)N2c2ccc(OC)cc2)cc1` (stereo not drawn): the half-maximal activity concentration (AC50) was 0.126 µM [falling, full curve, poor fit]. As to `COc1ccc(CCNc2oc(-c3ccccc3OC)nc2C#N)cc1OC`, the AC50 is 12.6 µM [rising, partial curve]. `O=C(c1ccc(COc2ccc3c(c2)CCC3)o1)N1CCN(c2ccccc2)CC1`: the concentration at half-maximal activity (AC50) is 3.16 µM [rising, single point].

For `CCn1cc(C(=O)N2CCn3c(nc4ccccc43)C2)c(=O)c2ccc(C)nc21`, the AC50 was 7.94 µM [rising, partial curve].

With `N#CC(c1nc2ccccc2nc1N1CCCC1)S(=O)(=O)c1cccs1` (stereo not drawn), the AC50 was 10 µM [rising, single point]. On to `N#CCCN(C1CCCCC1)S(=O)(=O)CCOc1ccccc1`, for which the AC50 is 25.1 µM [rising, single point]. `Oc1ccc(Cl)cc1/C=N/c1nc2ccccc2[nH]1`: the half-maximal activity concentration (AC50) was 0.398 µM [rising, partial curve]. With `COc1cc(-c2nnc(-c3ccncc3)o2)ccc1OCc1ccccc1`, the AC50 is 25.1 µM [falling, single point].

On to `COc1cc(S(=O)(=O)N2CCN(c3ccccc3F)CC2)ccc1Cl`, for which the AC50 was 6.31 µM [falling, partial curve, poor fit].

Source of the values: PubChem BioAssay AID662 (National Center for Advancing Translational Sciences (NCATS), 2007).
